The text below walks through data of article PMC5472760.

Amino acid sequences for entries named in this document (tags omitted). Residues count along the entry.
UniProt Q9HC29: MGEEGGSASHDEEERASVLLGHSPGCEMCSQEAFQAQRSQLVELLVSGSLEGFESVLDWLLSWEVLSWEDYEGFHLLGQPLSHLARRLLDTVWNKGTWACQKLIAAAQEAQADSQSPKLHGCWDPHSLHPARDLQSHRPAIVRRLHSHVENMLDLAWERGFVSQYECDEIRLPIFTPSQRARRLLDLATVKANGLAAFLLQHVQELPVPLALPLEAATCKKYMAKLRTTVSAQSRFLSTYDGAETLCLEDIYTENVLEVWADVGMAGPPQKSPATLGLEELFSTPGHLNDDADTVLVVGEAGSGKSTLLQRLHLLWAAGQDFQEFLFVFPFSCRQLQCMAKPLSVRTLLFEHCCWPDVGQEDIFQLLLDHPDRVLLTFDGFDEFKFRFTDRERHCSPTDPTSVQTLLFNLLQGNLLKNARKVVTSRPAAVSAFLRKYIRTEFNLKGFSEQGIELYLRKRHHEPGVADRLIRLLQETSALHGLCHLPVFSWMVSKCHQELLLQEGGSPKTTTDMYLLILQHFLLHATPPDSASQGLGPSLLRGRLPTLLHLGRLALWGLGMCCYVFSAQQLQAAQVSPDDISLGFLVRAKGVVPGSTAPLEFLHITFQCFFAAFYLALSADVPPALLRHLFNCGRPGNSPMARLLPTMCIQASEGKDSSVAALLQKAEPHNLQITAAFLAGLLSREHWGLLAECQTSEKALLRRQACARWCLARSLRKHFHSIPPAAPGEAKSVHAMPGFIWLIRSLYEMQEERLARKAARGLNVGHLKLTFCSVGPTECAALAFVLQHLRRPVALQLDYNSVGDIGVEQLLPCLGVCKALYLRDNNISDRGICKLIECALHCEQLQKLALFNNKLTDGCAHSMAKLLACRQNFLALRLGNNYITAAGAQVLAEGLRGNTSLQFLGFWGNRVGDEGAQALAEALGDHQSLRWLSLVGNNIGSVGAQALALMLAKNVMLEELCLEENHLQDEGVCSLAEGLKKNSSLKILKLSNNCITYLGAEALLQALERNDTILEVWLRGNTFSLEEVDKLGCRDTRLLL
UniProt O43353: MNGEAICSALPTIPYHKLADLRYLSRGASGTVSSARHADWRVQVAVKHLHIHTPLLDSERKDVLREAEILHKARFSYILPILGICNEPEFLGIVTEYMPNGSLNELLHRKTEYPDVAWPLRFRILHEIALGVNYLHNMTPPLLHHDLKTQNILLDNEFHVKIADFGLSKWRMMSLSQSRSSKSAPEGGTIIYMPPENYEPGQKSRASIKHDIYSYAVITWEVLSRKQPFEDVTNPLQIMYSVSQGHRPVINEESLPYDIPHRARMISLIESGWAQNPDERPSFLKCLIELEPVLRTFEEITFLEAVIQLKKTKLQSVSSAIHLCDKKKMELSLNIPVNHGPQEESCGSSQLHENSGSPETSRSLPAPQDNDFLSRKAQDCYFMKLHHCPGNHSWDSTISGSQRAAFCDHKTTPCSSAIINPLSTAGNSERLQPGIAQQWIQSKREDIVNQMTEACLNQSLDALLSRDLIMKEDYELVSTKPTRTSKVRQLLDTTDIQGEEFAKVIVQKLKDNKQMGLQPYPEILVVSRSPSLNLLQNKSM
UniProt P25963: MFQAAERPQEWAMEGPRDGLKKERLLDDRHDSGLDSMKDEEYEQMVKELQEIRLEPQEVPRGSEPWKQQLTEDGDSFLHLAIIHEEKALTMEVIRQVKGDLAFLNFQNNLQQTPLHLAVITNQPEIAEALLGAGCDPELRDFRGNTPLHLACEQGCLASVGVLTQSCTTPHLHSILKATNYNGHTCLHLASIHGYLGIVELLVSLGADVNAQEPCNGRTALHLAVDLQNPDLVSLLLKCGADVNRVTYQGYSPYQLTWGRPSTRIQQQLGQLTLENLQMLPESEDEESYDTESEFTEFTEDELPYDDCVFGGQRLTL
UniProt P51617: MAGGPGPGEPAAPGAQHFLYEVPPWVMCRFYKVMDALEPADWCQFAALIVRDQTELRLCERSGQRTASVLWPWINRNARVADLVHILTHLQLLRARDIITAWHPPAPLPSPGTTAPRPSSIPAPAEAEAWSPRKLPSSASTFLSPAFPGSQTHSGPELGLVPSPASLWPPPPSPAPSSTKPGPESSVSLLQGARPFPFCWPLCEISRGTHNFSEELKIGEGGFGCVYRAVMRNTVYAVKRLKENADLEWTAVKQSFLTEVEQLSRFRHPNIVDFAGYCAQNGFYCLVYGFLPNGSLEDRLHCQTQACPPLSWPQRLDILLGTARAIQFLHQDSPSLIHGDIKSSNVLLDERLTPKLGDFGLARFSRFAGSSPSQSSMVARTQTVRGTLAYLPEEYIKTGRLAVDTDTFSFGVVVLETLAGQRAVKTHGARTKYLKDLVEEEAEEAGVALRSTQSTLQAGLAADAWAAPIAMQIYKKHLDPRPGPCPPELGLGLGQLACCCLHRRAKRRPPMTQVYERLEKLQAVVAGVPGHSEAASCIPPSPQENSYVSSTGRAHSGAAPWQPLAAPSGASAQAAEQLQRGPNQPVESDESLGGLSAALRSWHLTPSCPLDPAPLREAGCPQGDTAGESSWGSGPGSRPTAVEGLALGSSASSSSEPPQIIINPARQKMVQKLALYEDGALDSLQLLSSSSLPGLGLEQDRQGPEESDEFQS
UniProt P31040, residues 43-664: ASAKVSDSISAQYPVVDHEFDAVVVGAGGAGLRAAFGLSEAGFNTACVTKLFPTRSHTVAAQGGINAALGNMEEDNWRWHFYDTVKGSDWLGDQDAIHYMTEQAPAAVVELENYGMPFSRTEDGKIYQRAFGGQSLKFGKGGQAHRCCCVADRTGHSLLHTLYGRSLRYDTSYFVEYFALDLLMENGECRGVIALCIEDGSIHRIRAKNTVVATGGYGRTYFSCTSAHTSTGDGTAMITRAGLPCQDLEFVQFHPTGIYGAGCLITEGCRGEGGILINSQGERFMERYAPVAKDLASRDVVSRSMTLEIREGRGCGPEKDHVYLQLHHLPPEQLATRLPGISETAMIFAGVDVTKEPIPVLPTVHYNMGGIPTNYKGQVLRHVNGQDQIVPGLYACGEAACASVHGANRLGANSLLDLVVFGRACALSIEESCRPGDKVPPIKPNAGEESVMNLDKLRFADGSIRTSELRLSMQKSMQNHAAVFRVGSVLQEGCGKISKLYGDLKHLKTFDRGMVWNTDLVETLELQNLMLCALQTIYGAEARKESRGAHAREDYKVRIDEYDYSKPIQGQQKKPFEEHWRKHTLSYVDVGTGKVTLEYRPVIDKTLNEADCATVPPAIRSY

Substitutions are numbered along the chain they refer to. These are yes or no findings as the source states them, for the method shown. Binding seen in cells or lysates may run through a third protein. Some entries that bind do so weakly or less than the wild type. For some of these results: Tags and fused reporters may be left off the sequences shown.

Experiment [1] concerns the target NOD2, endogenous in human monocyte-derived macrophages (human (endogenous in MDMs)) (UniProt Q9HC29). The experiment in a line: co-IP; lysates of human MDMs transfected with scrambled or LACC1 siRNA, treated with 100 μg/ml MDP for 15 min; RIP2 or NOD2 immunoprecipitated on protein A sepharose beads; recruited proteins by western blot.
Experiment [2] has as its target RIP2, endogenous in human monocyte-derived macrophages (human (endogenous in MDMs)) (UniProt O43353). The description is as above.
Experiment [3] concerns the target T1, LACC1 His249,250Ala mutant, transfected into HEK293 cells (human) (UniProt Q8IV20).
T1 sequence: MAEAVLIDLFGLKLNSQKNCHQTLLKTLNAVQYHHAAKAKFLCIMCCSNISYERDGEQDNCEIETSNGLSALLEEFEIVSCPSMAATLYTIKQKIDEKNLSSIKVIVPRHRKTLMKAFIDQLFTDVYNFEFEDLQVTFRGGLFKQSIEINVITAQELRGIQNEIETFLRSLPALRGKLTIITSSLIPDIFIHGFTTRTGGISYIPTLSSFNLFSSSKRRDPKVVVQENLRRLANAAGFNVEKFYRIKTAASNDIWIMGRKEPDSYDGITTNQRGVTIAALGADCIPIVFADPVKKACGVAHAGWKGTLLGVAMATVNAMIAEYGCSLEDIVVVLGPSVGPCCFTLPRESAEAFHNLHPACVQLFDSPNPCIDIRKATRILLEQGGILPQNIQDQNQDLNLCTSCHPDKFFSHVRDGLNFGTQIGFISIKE
The experiment in a line: co-IP; lysates of HEK293 cells transfected with LACC1 variants and NOD2, treated with 100 μg/ml MDP, 6 h; immunoprecipitated with anti-LACC1 antibody on protein A sepharose beads; SDHA by western blot. (In general: In western blotting, separated proteins are transferred to a membrane and probed.)

Experiment [4] deals with T2, LACC1 Ile254 variant, transfected into HEK293 cells (human) (UniProt Q8IV20).
T2 sequence: T1 sequence with A249H, A250H
The experiment is described as above.

In experiment [5] the target is T3, LACC1 Val254 disease-risk variant, transfected into HEK293 cells (human) (UniProt Q8IV20).
T3 sequence: T1 sequence with A249H, A250H, I254V
The description is as above.

Take “phospho-IκBα, endogenous in human monocyte-derived macrophages (from UniProt P25963 1-317)”: the binding result in experiment [1] and in experiment [2] was “binds” in each case.

As for “IRAK1, endogenous in human monocyte-derived macrophages (from UniProt P51617 1-712)”, the binding entry in experiment [1] and in experiment [2] was “binds” in each case.

Take “succinate dehydrogenase (SDH) subunit A, endogenous in HEK293 cells (from UniProt P31040 43-664)”: the binding entry in experiment [3], in experiment [4] and in experiment [5] was “binds” throughout.
